Measurements as given in publication PMC6466687.

By UniProt entry, the sequences of proteins in these tests, tags left out.
UniProt Q13620: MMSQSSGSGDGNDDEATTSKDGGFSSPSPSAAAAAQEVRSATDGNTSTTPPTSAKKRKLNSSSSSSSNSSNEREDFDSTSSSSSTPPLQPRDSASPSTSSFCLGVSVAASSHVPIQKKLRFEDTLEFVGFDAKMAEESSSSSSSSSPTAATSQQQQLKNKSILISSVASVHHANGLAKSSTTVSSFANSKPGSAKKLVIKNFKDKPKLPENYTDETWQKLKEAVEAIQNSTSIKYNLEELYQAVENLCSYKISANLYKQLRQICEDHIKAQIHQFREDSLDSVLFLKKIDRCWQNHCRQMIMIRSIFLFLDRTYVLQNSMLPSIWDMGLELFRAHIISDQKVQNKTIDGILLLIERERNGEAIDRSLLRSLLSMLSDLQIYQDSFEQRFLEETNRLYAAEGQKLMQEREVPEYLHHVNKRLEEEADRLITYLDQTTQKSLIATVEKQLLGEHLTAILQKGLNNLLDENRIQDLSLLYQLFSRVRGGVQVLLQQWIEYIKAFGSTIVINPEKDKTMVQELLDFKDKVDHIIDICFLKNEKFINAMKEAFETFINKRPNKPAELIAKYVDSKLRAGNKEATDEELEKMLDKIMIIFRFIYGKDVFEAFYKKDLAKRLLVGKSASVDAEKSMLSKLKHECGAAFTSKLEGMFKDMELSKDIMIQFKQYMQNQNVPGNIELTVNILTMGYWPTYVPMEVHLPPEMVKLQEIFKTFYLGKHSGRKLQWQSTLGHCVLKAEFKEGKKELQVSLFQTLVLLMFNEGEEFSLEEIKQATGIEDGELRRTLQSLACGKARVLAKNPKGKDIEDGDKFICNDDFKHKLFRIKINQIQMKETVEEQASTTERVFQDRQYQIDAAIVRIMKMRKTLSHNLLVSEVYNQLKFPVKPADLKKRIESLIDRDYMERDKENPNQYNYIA
UniProt P51449: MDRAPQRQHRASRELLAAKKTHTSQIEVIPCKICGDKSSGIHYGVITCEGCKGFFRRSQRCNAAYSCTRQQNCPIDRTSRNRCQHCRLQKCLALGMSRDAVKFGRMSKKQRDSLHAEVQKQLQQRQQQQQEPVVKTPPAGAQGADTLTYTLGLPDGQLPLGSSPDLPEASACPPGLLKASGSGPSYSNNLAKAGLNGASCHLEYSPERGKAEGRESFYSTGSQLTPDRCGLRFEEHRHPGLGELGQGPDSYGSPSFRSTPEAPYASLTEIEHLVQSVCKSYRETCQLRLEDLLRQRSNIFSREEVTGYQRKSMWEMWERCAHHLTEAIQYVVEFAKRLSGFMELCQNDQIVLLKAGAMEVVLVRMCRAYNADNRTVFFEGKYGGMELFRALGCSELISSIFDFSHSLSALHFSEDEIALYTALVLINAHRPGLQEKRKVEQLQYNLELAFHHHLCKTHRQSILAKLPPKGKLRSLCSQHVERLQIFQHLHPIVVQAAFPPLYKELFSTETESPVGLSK

Target: CUL4B (human (endogenous in NT2)) (UniProt Q13620)
Assay: affinity purification with mass spectrometry; IP with an antibody for CUL4B, precipitated proteins identified by mass spectrometry (IP/Mas); cells not named for this experiment

binding: binds
Substance: retinoic acid-related orphan nuclear receptor gamma (from UniProt P51449 1-518)

No constants are given. Whether binding was seen depends on the method and setting. In cells and extracts the contact can be indirect. Here binding means that the protein was enriched with, or labelled near, the bait; the list need not be complete.
